Measurements reported in PubChem BioAssay AID1259254 (NCATS, 2017).
In all, the deposit lists about 59,000 reagents; below is a random part of them. About 1,550 of all reagents (2.6%) were called active. 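G2 share is only a proxy for re-replication; each gene was hit by three separate siRNAs, and active genes were retested.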 Entries without a mark were called inactive. The numbers tell different reagents against one gene apart. Further read-outs or replicates are left out here. The record does not give: the amount of reagent.

Purpose: 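Gene knock-downs that lead to re-replication, shown by excess G2 DNA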 (primary screen)
System: human HCT116 colorectal cancer cells
Reagents: single siRNA against human genes
Timing: 3 days
Read-out: 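Imaged Hoechst DNA stain sorts each cell into a cycle phase by DNA amount; per plate, G2 fraction set to 0% for non-targeting and 100% for GMNN siRNA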
Reading the numbers: G2 robust z-score: higher = more G2 cells, more excess DNA replication
Call rule: 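An siRNA counts as active if its G2 robust z-score lies at least 5 MADs above the screen median; here such calls match roughly 38% of GMNN control or more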

After knock-down of VN1R1 (vomeronasal 1 receptor 1) #1, the record shows G2 robust z-score -1.23.
Against VN1R1 (vomeronasal 1 receptor 1) #2, the entry reads G2 robust z-score 0.164.
Knock-down of VN1R1 (vomeronasal 1 receptor 1) #3 gave: G2 robust z-score -0.992.
With knock-down of PTPRZ1 (protein tyrosine phosphatase receptor type Z1) #1, the record shows G2 robust z-score -0.819.
Knock-down of PTPRZ1 (protein tyrosine phosphatase receptor type Z1) #2 came out at: G2 robust z-score -0.254.
After knock-down of PTPRZ1 (protein tyrosine phosphatase receptor type Z1) #3 the results were G2 robust z-score -0.726.
With knock-down of LOC387939 (retired record) #1, the screen gave G2 robust z-score 2.19.
For LOC387939 (retired record) #2, the values are G2 robust z-score -0.0855.
Silencing of LOC387939 (retired record) #3 resulted in: G2 robust z-score 7.05 (active).
LOC643441 #1 scored G2 robust z-score -0.351.
For LOC643441 #2, the entry reads G2 robust z-score 1.94.
After knock-down of LOC643441 #3, the screen gave G2 robust z-score -0.71.
MED9 (mediator complex subunit 9) #1 showed G2 robust z-score 1.93.
Against MED9 (mediator complex subunit 9) #2 the deposit lists G2 robust z-score -1.15.
Against MED9 (mediator complex subunit 9) #3 the deposit lists G2 robust z-score -1.25.
With knock-down of KCNS2 #1, the record shows G2 robust z-score -0.306.
Against KCNS2 #2 the deposit lists G2 robust z-score 1.22.
KCNS2 #3 showed G2 robust z-score 1.29.

Sorted by “G2 robust z-score” (high to low): 2 of the entries above.
LOC387939 (retired record) #3 → G2 robust z-score: 7.05 (active)
LOC643441 #1 → G2 robust z-score: -0.351
